Results as given in article PMC8058344, “ARIH1 signaling promotes anti-tumor immunity by targeting PD-L1 for proteasomal degradation” (Nature Communications, 2021).

Protein sequences, listed by entry. Tags and fused reporters are not part of them. Residues count along the entry.
UniProt Q9NZQ7, residues 19-290: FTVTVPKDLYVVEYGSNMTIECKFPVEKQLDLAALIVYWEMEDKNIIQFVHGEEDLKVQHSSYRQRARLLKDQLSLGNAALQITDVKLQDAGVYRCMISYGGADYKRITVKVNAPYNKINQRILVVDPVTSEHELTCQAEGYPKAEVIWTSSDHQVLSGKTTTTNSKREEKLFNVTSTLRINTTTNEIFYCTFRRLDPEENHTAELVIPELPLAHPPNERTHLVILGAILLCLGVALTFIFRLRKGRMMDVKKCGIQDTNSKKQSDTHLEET
UniProt Q9Y4X5: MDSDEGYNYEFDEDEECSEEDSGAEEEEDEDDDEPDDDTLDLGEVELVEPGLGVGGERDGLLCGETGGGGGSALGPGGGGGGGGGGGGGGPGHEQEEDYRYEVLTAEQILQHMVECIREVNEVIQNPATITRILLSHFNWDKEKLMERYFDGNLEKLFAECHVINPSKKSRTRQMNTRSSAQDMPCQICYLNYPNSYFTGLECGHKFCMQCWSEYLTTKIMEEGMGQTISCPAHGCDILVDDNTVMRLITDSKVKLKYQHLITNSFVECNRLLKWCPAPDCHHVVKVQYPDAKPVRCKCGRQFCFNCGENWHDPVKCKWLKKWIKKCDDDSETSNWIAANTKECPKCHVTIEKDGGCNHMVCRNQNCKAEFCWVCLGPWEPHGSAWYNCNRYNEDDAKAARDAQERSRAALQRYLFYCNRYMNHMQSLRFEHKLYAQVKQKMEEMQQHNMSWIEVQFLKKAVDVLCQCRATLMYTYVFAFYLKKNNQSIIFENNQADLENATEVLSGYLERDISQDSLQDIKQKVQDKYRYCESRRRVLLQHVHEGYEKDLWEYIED
UniProt P49840: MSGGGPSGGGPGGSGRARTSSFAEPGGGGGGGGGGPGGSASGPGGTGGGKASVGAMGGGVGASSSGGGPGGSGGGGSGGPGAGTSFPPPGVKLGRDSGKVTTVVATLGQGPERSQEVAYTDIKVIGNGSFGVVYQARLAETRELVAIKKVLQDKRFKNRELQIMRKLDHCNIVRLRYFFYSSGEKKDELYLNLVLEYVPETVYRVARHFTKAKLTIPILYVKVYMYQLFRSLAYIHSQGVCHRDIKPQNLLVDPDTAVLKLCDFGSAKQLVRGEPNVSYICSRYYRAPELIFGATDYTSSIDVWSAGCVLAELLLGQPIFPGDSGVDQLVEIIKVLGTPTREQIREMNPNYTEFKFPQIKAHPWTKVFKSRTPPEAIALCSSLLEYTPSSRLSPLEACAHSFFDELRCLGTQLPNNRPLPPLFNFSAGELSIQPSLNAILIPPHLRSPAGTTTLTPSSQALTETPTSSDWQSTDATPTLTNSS

Key:
Flag-PD-L1 (WT) (human) [1] = molecular target: Flag-PD-L1 (WT) (human) (UniProt Q9NZQ7); assay: affinity purification with mass spectrometry; HEK293T cells transfected with Flag-PD-L1, treated with ES-072 (10 μM) for 48 h; proteins co-immunoprecipitated with PD-L1 analysed by mass spectrometry
Flag-PD-L1 (WT) (human) [2] = molecular target: Flag-PD-L1 (WT) (human) (UniProt Q9NZQ7); assay: as above; remark: listed apart in the source

“endogenous ARIH1 (from UniProt Q9Y4X5 1-557) (enzyme)” was tested, and the binding (Flag-PD-L1 (WT) (human) [1]) was “binds”.

In the case of “endogenous GSK3α (from UniProt P49840 1-483) (enzyme)”, the binding (Flag-PD-L1 (WT) (human) [1]) is reported as “binds”.

B1: ring finger protein 25 (RNF25) (enzyme, UniProt Q96BH1 1-459)
chain: MAASASAAAGEEDWVLPSEVEVLESIYLDELQVIKGNGRTSPWEIYITLHPATAEDQDSQYVCFTLVLQVPAEYPHEVPQISIRNPRGLSDEQIHTILQVLGHVAKAGLGTAMLYELIEKGKEILTDNNIPHGQCVICLYGFQEKEAFTKTPCYHYFHCHCLARYIQHMEQELKAQGQEQEQERQHATTKQKAVGVQCPVCREPLVYDLASLKAAPEPQQPMELYQPSAESLRQQEERKRLYQRQQERGGIIDLEAERNRYFISLQQPPAPAEPESAVDVSKGSQPPSTLAAELSTSPAVQSTLPPPLPVATQHICEKIPGTRSNQQRLGETQKAMLDPPKPSRGPWRQPERRHPKGGECHAPKGTRDTQELPPPEGPLKEPMDLKPEPHSQGVEGPPQEKGPGSWQGPPPRRTRDCVRWERSKGRTPGSSYPRLPRGQGAYRPGTRRESLGLESKDGS
In the case of B1, the binding (Flag-PD-L1 (WT) (human) [2]) is reported as “binds”.

Where two headings read alike, the source gives them in different places. No constants are given. Whether binding was seen depends on the method and setting. In cells and extracts the contact can be indirect. These calls come from enrichment with a bait or labelling near it, and not all partners need be listed.
